Measurements reported in PubChem BioAssay AID1508588 (Peter MacCallum Cancer Centre, 2020)

Purpose: 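Genome-wide search for knock-downs that heighten vemurafenib action in melanoma cells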 (primary screen)
Cell system: human WM266.4 melanoma cells (BRAF V600 mutant)
Reagents: siRNA pool against human genes, 40 nM
Timing: 96 h from transfection to read-out
Conditions: vemurafenib 300 nM (about IC25), added 48 h after transfection, for 48 h; comparison arm got DMSO vehicle only
Measured: 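Cell gain (DAPI nuclei at end minus before drug, mean of two replicates) and medium lactate by absorbance per cell, both as ratio to non-targeting siRNA, also grouped into fold-change classes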
Scale: cell gain with vemurafenib: higher = more cell gain than with non-targeting siRNA; lactate per cell with vemurafenib: higher = more lactate made per cell
Rule for the call: 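Enhancement is called by pairing each knock-down's vehicle-arm and drug-arm fold-change classes for viability or glycolysis; which class combinations qualify is not given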
Calls: active = enhances vemurafenib effect; inactive = no enhancement seen
Shown is a random part of about 18,000 reagents. In the full data, 790 (4.4%) got an active call. 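Calls rest on a combination of fold-change classes in drug and vehicle arms, not all shown here.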

gene	cell gain with vemurafenib	lactate per cell with vemurafenib	outcome
SPCS2	0.33	2.24	inactive
USO1	0.83	1.02	inactive
REC114	0.95	0.48	active
PSMA6	0.09	1.7	inactive
DHRS4L2	0.63	0.64	inactive
SCAMP2	0.98	0.44	active
SYT10	0.41	1.06	inactive
CCR2	0.9	0.38	inactive
WWTR1	0.67	0.43	inactive
MED27	0.98	1.04	inactive
TMED9	0.7	0.48	active
SLC39A1	0.66	0.31	inactive
MCEMP1	-0.11	0.57	active
ARL6IP4	0.85	0.48	inactive
TACC2	0.15	1.96	inactive
RBM43	0.24	1.43	inactive
DDX52	0.7	0.7	inactive
VAMP3	0.31	0.69	inactive
MARS1	0.22	2.28	inactive
FXYD3	0.13	0.7	inactive
HDAC6	0.55	0.8	inactive
TNNC2	1.18	0.99	inactive
UCHL3	0.88	0.88	inactive
LUC7L	0.16	3.02	inactive
BTN2A1	0.39	1.4	inactive
RPS14	-0.09	1.21	inactive
PADI3	0.96	0.87	inactive
MRPL34	0.01	1.94	inactive
KCMF1	0.87	0.22	inactive
UCP1	0.96	0.54	inactive
SORD	0.2	1.57	inactive
H2BC21	0.47	1.25	inactive
IL17RE	0.77	1.18	inactive
GRXCR2	0.92	0.82	inactive
ITLN1	1.35	0.66	inactive
CLN6	0.51	0.84	inactive
PHLDA2	0.58	0.9	inactive
ACOT6	0.69	1.51	inactive
BBS12	0.5	0.63	inactive
RPL41	0.99	0.64	inactive
SLC26A9	0.29	2.16	inactive
NDOR1	0.86	0.68	inactive
VPS18	0.67	0.8	inactive
GOSR2	0.34	0.77	inactive
PKN2	0.38	0.87	inactive
CPOX	0.6	0.68	inactive

Records listed above called active:
gene	cell gain with vemurafenib	lactate per cell with vemurafenib	outcome
REC114	0.95	0.48	active
SCAMP2	0.98	0.44	active
TMED9	0.7	0.48	active
MCEMP1	-0.11	0.57	active

The list goes on:
gene	cell gain with vemurafenib	lactate per cell with vemurafenib	outcome
TFDP1	0.13	0.64	inactive
PHC3	0.29	1.38	inactive
RWDD1	0.27	0.83	inactive
KMT2E	1.17	0.92	inactive
STEAP3	1.1	0.7	inactive
TMEM45A	0.73	0.9	inactive
FCN2	0.91	1.58	inactive
SHE	0.78	0.73	inactive
GAS2	0.71	1.19	inactive
KRTAP1-1	0.44	1.19	inactive
C10orf88	0.76	0.95	inactive
CD160	0.1	1.63	inactive
RNF11	0.13	0.44	active
PDS5A	0.69	0.8	inactive
TUBB4B	0.33	1.31	inactive
CRTAP	1.05	0.53	inactive
PRKCI	0.75	0.54	inactive
SNX1	0.43	1.07	inactive
MSRB1	0.62	0.9	inactive
PKNOX2	0.89	0.82	inactive
PLEKHO1	0.75	1.21	inactive
LRRK2	0.57	0.69	inactive
TMEM232	1.24	0.74	inactive
GAB4	0.94	0.78	inactive
ITPKA	0.68	0.52	inactive
FCRL5	0.85	1.01	inactive
CC2D1A	0.88	0.68	inactive
PNLIPRP2	0.83	1.05	inactive
VMAC	0.13	1.4	inactive
DMXL2	0.89	1.25	inactive
CDC42EP5	0.07	2.73	inactive
CLIC5	0.32	2.19	inactive
PTGES3	0.88	1.08	inactive
FIG4	0.65	0.62	inactive
SPTBN2	0.74	0.31	inactive
DEAF1	0.51	1.36	inactive
CFAP210	1.03	1.13	inactive
MBD6	0.85	0.62	inactive
BZW1	0.01	1.5	inactive
RPP30	0.38	1.4	inactive
BICD2	0.36	0.8	inactive
ZBBX	0.44	1.92	inactive
PAX6	0.79	1.09	inactive
ZNF565	1.18	0.38	inactive
RASIP1	0.19	1.96	inactive
CALU	0.8	0.76	inactive
SP5	0.76	0.7	inactive
CDC42BPA	0.48	1.54	inactive
LYSMD2	1.01	1.7	inactive
LMOD1	0.58	1.77	inactive
ZDHHC23	0.25	1.92	inactive
SEMA3D	0.7	0.94	inactive
CFD	0.69	1.1	inactive
PPAN-P2RY11	0.78	1.21	inactive
KHK	0.04	1.46	inactive
OR6K3	0.69	0.97	inactive
NUDT11	0.25	1.99	inactive
SCUBE1	0.9	1.2	inactive
SLC29A2	0.35	0.9	inactive
ATP1B3	0.07	2.55	inactive
ANKK1	0.52	1.04	inactive
